PubChem BioAssay AID686938 – Drosophila RNAi Screening Center, 2013
The deposit covers about 23,000 reagents; shown is an unselected part of those with a known target gene and a result. In the full data, 75 (0.33%) were called active. 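Raw plate signals without normalisation; calls rest on plate z-scores that were not deposited; ratio present for only 364 wells.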 Names joined by + are all predicted targets of the reagent. No sequences are given here. The record does not give: the dose of the treatment.

- Screen: 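Fly genes required for calcium entry once internal stores are emptied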 (primary screen)
- Cells: Drosophila S2R+ cells
- Reagent: long dsRNA against Drosophila genes, about 0.25 µg dsRNA per well, roughly 10,000 cells
- Duration: 5 days of knock-down before the calcium assay
- Challenge: thapsigargin (SERCA pump blocker) to empty calcium stores; entry signal taken 4 min after adding it
- Measurement: 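Per-well fluo-4 fluorescence in two replicates, unnormalised, measured in resting cells and 4 min after store depletion by the SERCA blocker thapsigargin; ratio of the two present in few wells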
- Reading the numbers: calcium entry signal: higher = stronger calcium signal after store depletion; entry to resting ratio: higher = more calcium entry relative to resting level; resting calcium signal: higher = higher resting calcium signal
- Active means: 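Called when the plate z-score of the entry-to-rest ratio, mean of duplicates, falls below −3; wells with low overall dye signal (Fmax z below −2) or more than five off-targets excluded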
- Calls: active = strongly reduced calcium entry; inactive = no strong reduction

| calcium entry signal, replicate 1 (fluorescence units) | calcium entry signal, replicate 2 (fluorescence units) | entry to resting ratio | resting calcium signal, replicate 1 (fluorescence units) | resting calcium signal, replicate 2 (fluorescence units) | outcome | gene | amplicon |
| --- | --- | --- | --- | --- | --- | --- | --- |
| 3.16e7 | 2.86e7 | – | 2.81e7 | 1.60e7 | inactive | eIF4E1 (eukaryotic translation initiation factor 4E1) | DRSC11342 |
| 3.17e7 | – | – | 1.60e7 | – | inactive | CG4377 | DRSC04467 |
| 3.26e7 | 3.84e7 | – | 1.52e7 | 1.97e7 | inactive | Ssadh (Succinic semialdehyde dehydrogenase) | DRSC15621 |
| 4.45e7 | 3.41e7 | – | 1.98e7 | 1.62e7 | inactive | Osi3 (Osiris 3) | DRSC12175 |
| 3.94e7 | 3.72e7 | – | 2.35e7 | 1.82e7 | inactive | Gr22d (Gustatory receptor 22d) | DRSC21653 |
| 2.76e7 | 2.96e7 | – | 1.30e7 | 1.53e7 | inactive | CG1578 | DRSC19729 |
| 4.09e7 | – | – | 1.81e7 | – | inactive | L2HGDH (L-2-hydroxyglutarate dehydrogenase) | DRSC02082 |
| 3.46e7 | 3.12e7 | – | 2.58e7 | 2.25e7 | inactive | Vha26 (Vacuolar H[+]-ATPase 26kD subunit) | DRSC12371 |
| 3.35e7 | 3.78e7 | – | 1.74e7 | 1.69e7 | inactive | TwdlX (TweedleX) | DRSC19151 |
| 4.28e7 | 3.96e7 | – | 2.35e7 | 1.81e7 | inactive | SrpRbeta (Signal recognition particle receptor beta) | DRSC21668 |
| 3.83e7 | 2.58e7 | – | 1.84e7 | 1.23e7 | inactive | Gclm (Glutamate-cysteine ligase modifier subunit) | DRSC15677 |
| 3.89e7 | 6.89e7 | – | 1.72e7 | 2.82e7 | inactive | mRpS26 (mitochondrial ribosomal protein S26) | DRSC10823 |
| 4.89e7 | – | – | 2.32e7 | – | inactive | CG13124 | DRSC02220 |
| 2.78e7 | 2.17e7 | – | 2.28e7 | 9.89e6 | inactive | Strip (Striatin interacting protein) | DRSC08194 |
| 2.76e7 | 3.24e7 | – | 1.18e7 | 1.46e7 | inactive | CG14718 | DRSC14941 |
| 2.84e7 | 4.42e7 | – | 1.43e7 | 2.15e7 | inactive | dx (deltex) | DRSC18767 |
| 3.19e7 | 2.63e7 | – | 1.43e7 | 1.38e7 | inactive | CtsK2 (Cathepsin K2) | DRSC06897 |
| 3.10e7 | 5.10e7 | – | 1.48e7 | 2.25e7 | inactive | CG4597 | DRSC10432 |
| 3.09e7 | 3.47e7 | – | 1.43e7 | 2.46e7 | inactive | Papss (PAPS synthetase) | DRSC11246 |
| 2.77e7 | 4.95e7 | – | 1.36e7 | 2.05e7 | inactive | BBS5 (Bardet-Biedl syndrome 5) | DRSC12168 |
| 3.17e7 | 4.58e7 | – | 1.65e7 | 2.18e7 | inactive | CG13197 | DRSC06322 |
| 3.82e7 | 4.36e7 | – | 1.73e7 | 2.09e7 | inactive | CG2124 | DRSC18208 |
| 3.06e7 | 4.64e7 | – | 1.49e7 | 3.08e7 | inactive | CG9628 | DRSC11082 |
| 3.75e7 | 4.31e7 | – | 1.66e7 | 2.06e7 | inactive | CG1236 | DRSC12203 |
| 3.50e7 | 2.91e7 | – | 1.82e7 | 1.43e7 | inactive | CG31525 | DRSC12004 |
| 2.94e7 | 2.07e7 | – | 1.37e7 | 1.06e7 | inactive | wcy (wacky) | DRSC20132 |

Laid out differently: entries from further up.
calcium entry signal, replicate 1 (fluorescence units) | calcium entry signal, replicate 2 (fluorescence units) | entry to resting ratio | resting calcium signal, replicate 1 (fluorescence units) | resting calcium signal, replicate 2 (fluorescence units) | outcome | gene | amplicon
4.09e7 | – | – | 1.81e7 | – | inactive | L2HGDH (L-2-hydroxyglutarate dehydrogenase) | DRSC02082
3.46e7 | 3.12e7 | – | 2.58e7 | 2.25e7 | inactive | Vha26 (Vacuolar H[+]-ATPase 26kD subunit) | DRSC12371
3.35e7 | 3.78e7 | – | 1.74e7 | 1.69e7 | inactive | TwdlX (TweedleX) | DRSC19151
4.28e7 | 3.96e7 | – | 2.35e7 | 1.81e7 | inactive | SrpRbeta (Signal recognition particle receptor beta) | DRSC21668
3.83e7 | 2.58e7 | – | 1.84e7 | 1.23e7 | inactive | Gclm (Glutamate-cysteine ligase modifier subunit) | DRSC15677
3.89e7 | 6.89e7 | – | 1.72e7 | 2.82e7 | inactive | mRpS26 (mitochondrial ribosomal protein S26) | DRSC10823
4.89e7 | – | – | 2.32e7 | – | inactive | CG13124 | DRSC02220
2.78e7 | 2.17e7 | – | 2.28e7 | 9.89e6 | inactive | Strip (Striatin interacting protein) | DRSC08194
2.76e7 | 3.24e7 | – | 1.18e7 | 1.46e7 | inactive | CG14718 | DRSC14941

The results go on.
| calcium entry signal, replicate 1 (fluorescence units) | calcium entry signal, replicate 2 (fluorescence units) | entry to resting ratio | resting calcium signal, replicate 1 (fluorescence units) | resting calcium signal, replicate 2 (fluorescence units) | outcome | gene | amplicon |
| --- | --- | --- | --- | --- | --- | --- | --- |
| 3.32e7 | 6.57e7 | – | 1.64e7 | 3.08e7 | inactive | CG34304 (retired record) | DRSC12810 |
| 4.20e7 | 4.21e7 | – | 1.74e7 | 2.17e7 | inactive | sl (small wing) | DRSC20377 |
| 4.59e7 | 4.54e7 | – | 2.69e7 | 2.16e7 | inactive | sl (small wing) | DRSC21782 |
| 2.22e7 | 3.78e7 | – | 1.10e7 | 1.59e7 | inactive | CG32856 | DRSC13124 |
| 1.10e7 | 1.18e7 | 1.3 | 8.38e6 | 8.01e6 | inactive | RpL36 (Ribosomal protein L36) | DRSC18708 |
| 3.52e7 | 4.78e7 | – | 1.80e7 | 1.76e7 | inactive | PH4alphaMP (prolyl-4-hydroxylase-alpha MP) | DRSC17031 |
| 4.28e7 | 6.46e7 | 2.1 | 2.02e7 | 2.08e7 | inactive | ND-49 (NADH dehydrogenase (ubiquinone) 49 kDa subunit) | DRSC17151 |
| 4.84e7 | 8.47e7 | – | 2.41e7 | 3.03e7 | inactive | UQCR-C2 (Ubiquinol-cytochrome c reductase core protein 2) | DRSC10405 |
| 2.58e7 | 3.31e7 | – | 1.16e7 | 1.42e7 | inactive | Lcp65Ag3 + Lcp65Ag2 + Lcp65Ag1 | DRSC11214 |
| 2.57e7 | 3.41e7 | – | 1.19e7 | 1.44e7 | inactive | Lcp65Ag3 + Lcp65Ag2 + Lcp65Ag1 | DRSC11215 |
| 2.90e7 | 3.38e7 | – | 1.43e7 | 1.47e7 | inactive | Sac1 (Sac1 phosphatase) | DRSC08622 |
| 3.23e7 | 3.32e7 | – | 1.39e7 | 1.62e7 | inactive | Zip48C (Zinc/iron regulated transporter-related protein 48C) | DRSC06314 |
| 2.35e7 | 4.39e7 | – | 1.32e7 | 1.70e7 | inactive | CG14142 | DRSC10145 |
| 5.43e7 | 4.50e7 | – | 2.61e7 | 1.68e7 | inactive | E(spl)mgamma-HLH (Enhancer of split mgamma, helix-loop-helix) | DRSC16699 |
| 2.83e7 | – | – | 1.49e7 | – | inactive | CG10307 | DRSC04057 |
| 5.61e7 | 4.44e7 | – | 2.56e7 | 2.25e7 | inactive | CG13838 | DRSC14688 |
| 3.89e7 | 2.79e7 | – | 2.07e7 | 1.35e7 | inactive | Syx8 (Syntaxin 8) | DRSC10402 |
| 3.70e7 | 3.22e7 | – | 2.32e7 | 1.58e7 | inactive | Syx8 (Syntaxin 8) | DRSC22498 |
| 2.12e7 | 2.10e7 | – | 1.11e7 | 1.00e7 | inactive | cv-d (crossveinless d) | DRSC16522 |
| 2.84e7 | 4.82e7 | – | 1.44e7 | 5.59e7 | inactive | cv-d (crossveinless d) | DRSC16524 |
| 3.69e7 | 5.15e7 | – | 1.74e7 | 6.40e7 | inactive | cv-d (crossveinless d) | DRSC16526 |
| 4.62e7 | 3.69e7 | – | 2.66e7 | 1.91e7 | inactive | CrebB (Cyclic-AMP response element binding protein B) | DRSC20232 |
| 2.99e7 | 2.35e7 | – | 1.35e7 | 1.14e7 | inactive | COX7AL (Cytochrome c oxidase subunit 7A-like) | DRSC15313 |
| 5.11e7 | 4.27e7 | – | 2.20e7 | 1.81e7 | inactive | CR43105 (pseudo) | DRSC05547 |
| 4.60e7 | 4.45e7 | – | 1.89e7 | 2.11e7 | inactive | whd (withered) | DRSC07351 |
| 4.61e7 | 6.95e7 | – | 2.08e7 | 3.23e7 | inactive | CG18539 | DRSC06766 |
| 4.40e7 | 4.12e7 | – | 2.11e7 | 1.83e7 | inactive | CG18507 | DRSC01334 |
| 3.86e7 | 2.65e7 | – | 1.64e7 | 1.27e7 | inactive | CG18507 | DRSC01914 |
| 3.12e7 | 3.05e7 | – | 1.55e7 | 1.39e7 | inactive | CG8173 | DRSC20088 |
| 2.87e7 | 8.09e7 | – | 1.44e7 | 3.30e7 | inactive | CG3587 | DRSC18541 |
| 3.31e7 | 4.89e7 | – | 1.62e7 | 2.50e7 | inactive | CG3587 | DRSC21966 |
| 3.92e7 | 4.30e7 | – | 1.96e7 | 1.89e7 | inactive | Rpt6R (Regulatory particle triple-A ATPase 6-related) | DRSC15431 |
| 2.17e7 | 3.21e7 | – | 1.04e7 | 1.62e7 | inactive | Edg78E (Ecdysone-dependent gene 78E) | DRSC11863 |
| 3.51e7 | 4.16e7 | – | 1.75e7 | 2.07e7 | inactive | Or49a (Odorant receptor 49a) | DRSC07493 |
| 4.23e7 | 3.96e7 | – | 2.10e7 | 1.72e7 | inactive | Fuca (alpha-L-fucosidase) | DRSC10591 |
| 2.45e7 | 2.93e7 | – | 4.39e7 | 1.25e7 | inactive | CG12347 | DRSC14502 |
| 3.49e7 | – | – | 1.84e7 | – | inactive | CG3065 | DRSC04333 |
| 4.57e7 | 6.17e7 | – | 2.28e7 | 2.57e7 | inactive | CR17567 (retired record) | DRSC02627 |
| 2.38e7 | 2.77e7 | – | 1.32e7 | 1.25e7 | inactive | CR17567 (retired record) | DRSC22537 |
| 3.29e7 | 3.89e7 | – | 1.52e7 | 1.87e7 | inactive | CG8478 | DRSC16427 |
| 3.27e7 | 3.16e7 | – | 1.57e7 | 1.41e7 | inactive | Orct (Organic cation transporter) | DRSC16777 |
| 2.46e7 | 1.55e7 | – | 1.36e7 | 8.69e6 | inactive | LSm7 (Like Sm 7) | DRSC02251 |
| 2.58e7 | 3.45e7 | – | 1.35e7 | 1.71e7 | inactive | Irbp18 (Inverted repeat binding protein 18 kDa) | DRSC10612 |
| 4.65e7 | 5.40e7 | 1.9 | 2.39e7 | 2.17e7 | inactive | CG32815 | DRSC18177 |
| 4.12e7 | 5.30e7 | 1.9 | 2.22e7 | 2.16e7 | inactive | CG32815 | DRSC18179 |
| 4.02e7 | 2.40e7 | – | 2.15e7 | 1.17e7 | inactive | CG9095 | DRSC20150 |
| 4.27e7 | 3.72e7 | – | 2.06e7 | 1.94e7 | inactive | Ak3 (Adenylate kinase 3) | DRSC16075 |
| 4.06e7 | 3.53e7 | – | 2.01e7 | 1.83e7 | inactive | CG4511 | DRSC15589 |
| 4.73e7 | 5.10e7 | – | 2.10e7 | 3.55e7 | inactive | HIPP1 (HP1 and insulator partner protein 1) | DRSC11748 |
